Reference: patent US20260174790A1, “HUMAN AND MURINE OPRM1 PROMOTERS AND USES THEREOF” (The Trustees of the University of Pennsylvania, priority 2022, published 2026)

Test system: MOR+ CeA neurons
Assay: In vivo fiber photometry, hot water hind paw stimulation
Design: species or system mouse
Settings: mMORp-GCaMP6f mice, morphine i.p. 10 mg/kg 30 minutes prior to hot water hind paw stimulations

CN1CC[C@]23c4c5ccc(O)c4O[C@H]2[C@@H](O)C=C[C@H]3[C@H]1C5.O=S(=O)(O)O [morphine, morphine sulfate]
calcium mediated event AUC: 7.7
